For at least one entry, the source does not settle the construct or the ends of the probe. Where cells or extracts were used, other partners may take part.
Tested on: MCF10A non-cancer cell surface (Homo sapiens)
Test: flow cytometry
Details: non-cancer cells, protein on the cell surface, label: Alexa488, single-stranded DNA

GGTGGTGGTGGTTGTGGTGGTGGTGG [AS1411]
binding result: binds
